Some of these results come from one statement about several compounds together.
Tests used:
S1P3 = target: T1, S1P3 (Homo sapiens, UniProt Q99500); assay: S1P3 GTP [γ-35S] binding assay, membranes from CHO cells; format: biochemical; conditions: GTP [γ-35S] binding assays
T1 construct: c-myc (tagged or untagged); expressed in transfected cells

Sequences of proteins named here, by UniProt entry; tags and fusion partners are left off. A change or cut given only in a name is not applied to a line headed by its entry.
UniProt Q99500: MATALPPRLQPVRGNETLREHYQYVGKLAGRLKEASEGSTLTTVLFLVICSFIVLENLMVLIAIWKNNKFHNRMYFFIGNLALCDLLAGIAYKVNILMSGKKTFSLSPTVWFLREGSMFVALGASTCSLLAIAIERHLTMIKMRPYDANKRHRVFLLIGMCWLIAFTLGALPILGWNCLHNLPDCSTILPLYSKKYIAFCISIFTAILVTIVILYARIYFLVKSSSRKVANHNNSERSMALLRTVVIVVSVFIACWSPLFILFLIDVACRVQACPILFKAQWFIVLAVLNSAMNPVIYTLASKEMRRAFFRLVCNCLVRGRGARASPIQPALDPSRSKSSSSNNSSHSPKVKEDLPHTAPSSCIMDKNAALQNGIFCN
UniProt Q9H228: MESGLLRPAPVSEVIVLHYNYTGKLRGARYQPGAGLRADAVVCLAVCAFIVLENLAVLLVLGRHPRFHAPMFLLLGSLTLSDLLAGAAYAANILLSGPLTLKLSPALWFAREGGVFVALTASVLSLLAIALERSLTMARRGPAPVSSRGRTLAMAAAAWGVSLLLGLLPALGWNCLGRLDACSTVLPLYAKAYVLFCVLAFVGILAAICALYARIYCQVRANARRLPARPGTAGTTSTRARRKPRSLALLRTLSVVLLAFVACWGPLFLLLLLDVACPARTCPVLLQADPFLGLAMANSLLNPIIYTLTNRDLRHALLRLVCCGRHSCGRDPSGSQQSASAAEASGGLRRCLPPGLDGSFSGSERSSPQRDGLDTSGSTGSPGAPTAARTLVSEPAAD

S1P5 = target: T2, S1P5 (Homo sapiens, UniProt Q9H228); assay: S1P5 GTP [γ-35S] binding assay, membranes from CHO cells; format: biochemical; conditions: GTP [γ-35S] binding assays
T2 construct: c-myc (tagged or untagged); expressed in transfected cells

SMILES	selective for S1P1 compared to S1P3 (S1P3)	selective for S1P1 compared to S1P5 (S1P5)
O=C(O)CCNS(=O)(=O)c1ccc(-c2nc(-c3ccc(-c4ccccc4)c(C(F)(F)F)c3)no2)cc1 [Example 4, 3-{4-[3-(2-Trifluoromethyl-biphenyl-4-yl)-[1,2,4]oxadiazol-5-yl]-benzene-sulfonylamino}-propionic acid]	at least 20 fold	at least 20 fold
NS(=O)(=O)c1ccc(-c2nc(-c3ccc(-c4ccccc4)c(C(F)(F)F)c3)no2)cc1 [Example 13]	at least 20 fold	at least 20 fold
O=C(O)CCC(=O)Nc1ccc(-c2nc(-c3ccc(C4CCCCC4)c(C(F)(F)F)c3)no2)cc1 [Example 21]	at least 20 fold	at least 20 fold
